In US20250281679A1 (INSERM (Institut National de la Santé et de la Recherche …, priority 2021, published 2025):

Assay: general procedure: Fmoc solid-phase peptide synthesis; Protide Rink-amide resin (CEM, 100-200 Mesh; loading 0.2 mmol/g); DIC/Oxyma
Details: whole synthesis, scale of the general procedure 0.2 mmol, TFA salt

Row | Substance | crude yield | isolated yield
1 | Ac-K(N3)-(Ttds)4-PRhCTLDKKEAIQGGIVRVNhCSVPEEK-CONH2 | Y=73% | 
2 | Ac-KKKc*HQMLFYKDDVLFYNISSC*-Ttds-Ttds-K(N3)-CONH2 | Y=61% | Y=2%
3 | Ac-c*HQMLFYKDDVLFYNISSC*-GGSGGSGG-K(N3)-CONH2 | Y=64% | Y=5%
4 | K(N3)-PEG4-PRVTLDKKEAIQGGIVRVNSSVPEEK-CONH2 (Ac-K(N3)-PEG4 N-terminus, C-terminal amide; BINDING 1 Ac-K(N3)-PEG4-) | Y=54% | Y=35%
5 | SHQMLFYKDDVLFYNISSS-GGSGGSGG-K(N3)-CONH2 (GGSGGSGG-K(N3), C-terminal amide; BINDING 19 GGSGGSGG-K(N3)) | Y=66% | Y=4%
6 | YKSTVIVNNKEKTTAE-PEG4-K(N3)-CONH2 (PEG4-K(N3) C-terminus, amide; BINDING 16 PEG4-K(N3)) | Y=70% | Y=25%
7 | hCHQMLFYKDDVLFYNISShCK-Ttds-Ttds-Ttds-Ttds-K(N3)-CONH2 | Y=70% | Y=10%
8 | hCYKSTVIVNNKEKTTAEYhC-(Ttds)4-K(N3)-NH2 | Y=65% | Y=28%
